Experimental data from patent publication US6774222, “Molecular computing elements, gates and flip-flops” (The United States of America as represented by the …).

Biological target: T1, Fis (Factor for Inversion Stimulation) (Escherichia coli) (UniProt P0A6R3)
T1 sequence (looked up, limits assumed): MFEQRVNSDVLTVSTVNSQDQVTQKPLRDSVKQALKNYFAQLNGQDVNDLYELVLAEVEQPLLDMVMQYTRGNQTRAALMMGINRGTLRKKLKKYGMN
Experiment: footprint
Settings: CITED footprints from two groups protect one, the other and both sites; purified recombinant protein

“GTTATACACAACTCAAAAACTGAACAACAGTTGTTCTTTGGATAAC (double strand) [E. coli oriC Fis sites region]”: binds.

Construct, isoform or probe ends are uncertain for at least one entry. Tags and fusion partners may be left off the protein sequences shown.
